Some of these results come from one statement about several compounds together.
Tested on: Lewis rats
Assay: Induction of Experimental Autoimmune Encephalomyelitis by immunisation with MBP87-99 peptides (Example 7)
Conditions: rat, in vivo
Excerpt: Experimental Autoimmune Encephalomyelitis (EAE) is a paralytical central nervous system (CNS) disease that can be induced readily in susceptible animals by immunisation with myelin proteins. In this experiment MBP87-99 peptides (VHFFKNIVTPRTP) in linear and isomerised forms were used for induction of clinical EAE in Lewis rats.
36 female Lewis (L haplotype, Harlan) rats, 8 weeks of age were used in the experiment.
The animals were randomly assigned to one of the following three treatment groups: 1) a group receiving Asn or isoAsp MBP87-99 peptides 2) a positive control group receiving whole guinea pig MBP, and a negative control receiving PBS. The study was performed in a blinded fashion where the observer was unaware of the treatment of the animal. Below a detailed description of the three treatment groups is provided.
1) MBP87-99 Group: Peptides were dissolved in PBS (2 mg/ml). The peptide solution was mixed 1:1 with CFA supplemented with Mycobacterium tubercolosum H37RA, 4 mg/ml and mixed until an emulgate Wars formed. 200 μl emulgate was injected per rat, intra-dermally (i.d.) in the root of the tail (containing 200 μg MBP87-99 and 400 μg Mycobacterium).
The neurological function in immunised animals was evaluated daily. The evaluation was performed blinded by an observer unaware of the treatment groups and codes used in the experiment. This evaluation was performed daily, where the clinical signs of EAE were noted. The clinical signs of EAE were scored according to the following scale: grade 0=no clinical signs, grade 1=tail paralysis or unsteady gait, grade 2=hind leg paraparesis, grade 3=hind leg paralysis, grade 4=complete paralysis (tetraplegia) and grade 5 moribound state or death.
The weight of animals was also measured on a daily basis, as one of the earliest signs of EAE is a weight reduction. The weight of the MBP and peptide immunised animals was compared to the PBS control-group.

Substance | day of onset of EAE | peak of clinical disease
VHFFKNIVTPRTP [Asn MBP87-99, non-modified MBP87-99 peptide, reference compound] | 11-13 day post immunization | 12-15 days post immunization
isoAsp MBP87-99: MBP87-99 peptide (VHFFKNIVTPRTP) in isomerised form, Asn 92 giving iso-Asp (isoAsp at Asn92) | 11-13 day post immunization | 12-15 days post immunization
